Data on two molecules can be found in publication PMC11234217.

These are yes or no findings as the source states them, for the method shown. Binding seen in cells or lysates may run through a third protein. Some binding calls cover weakened binding; strength is not graded here. Tags and fused reporters may be left off the sequences shown.

Assay [1] has as its target Mouse VCP (valosin-containing protein), Myc-tagged (mouse) (UniProt Q01853). Kind of assay: co-IP; 293T cells expressing VCP-Myc, STAT1-EGFP and Epsti1-SRT or its truncation mutants; RIPA lysates, antibody plus Protein A/G agarose beads, immunoblot.
Assay [2] has as its target T1, STAT1-EGFP (signal transducer and activator of transcription 1) (UniProt P42225).
T1 sequence: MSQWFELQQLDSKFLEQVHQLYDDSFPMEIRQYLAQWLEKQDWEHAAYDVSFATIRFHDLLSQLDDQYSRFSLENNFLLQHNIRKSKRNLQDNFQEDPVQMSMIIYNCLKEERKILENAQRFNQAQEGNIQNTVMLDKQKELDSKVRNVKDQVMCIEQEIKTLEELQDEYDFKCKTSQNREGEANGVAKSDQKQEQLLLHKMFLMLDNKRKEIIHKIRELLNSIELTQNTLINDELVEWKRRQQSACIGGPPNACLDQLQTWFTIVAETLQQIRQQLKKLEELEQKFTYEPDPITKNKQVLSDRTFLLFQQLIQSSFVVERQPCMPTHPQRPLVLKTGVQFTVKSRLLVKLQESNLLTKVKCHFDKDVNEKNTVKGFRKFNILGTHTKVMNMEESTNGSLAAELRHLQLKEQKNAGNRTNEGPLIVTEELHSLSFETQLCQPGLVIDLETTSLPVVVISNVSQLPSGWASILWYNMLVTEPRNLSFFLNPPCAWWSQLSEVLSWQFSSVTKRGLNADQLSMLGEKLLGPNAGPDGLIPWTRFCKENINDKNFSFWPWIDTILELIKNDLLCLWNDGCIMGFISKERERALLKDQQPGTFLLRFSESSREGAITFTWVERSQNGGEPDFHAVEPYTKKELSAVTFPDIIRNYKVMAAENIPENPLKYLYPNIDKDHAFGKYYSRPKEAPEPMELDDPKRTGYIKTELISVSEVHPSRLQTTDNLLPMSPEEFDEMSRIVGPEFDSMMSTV
Described as above.

B1: Epsti1 coiled-coil domain deletion (△71-180), SRT-tagged (protein, UniProt Q8VDI1)
chain: MYTRSKVVGPGLGTSSISRDHAGAGQRRELGLQQNRRQSLEVAAPEGPKMERQGHADQGSAGTYTLIAPNEHHQSKTAELLSRLDTERRNRSACLIAPPATQSSRWKLPVLLRDPSWAGSQAHRDSPQKEDNPRLQKTRDGHQKNKLLETKGQHQEEERAQIHQAEHWRVNNAFLDRLQGKSQPGGLEQSGGCCNMNSTDSWGL
Consider B1, for which the binding result in assay [1] is “no binding”.

B2: Epsti1-SRT (epithelial-stromal interaction 1) (protein, UniProt Q8VDI1 1-314)
chain: MYTRSKVVGPGLGTSSISRDHAGAGQRRELGLQQNRRQSLEVAAPEGPKMERQGHADQGSAGTYTLIAPNESRRQKIQRIAEQELADLERWKQQNRAKPVYLVPQRLGGSQSEAEVRQKQQLQQMRSKYQQKLKRDESIRIRKEAEEAKFQKMKAIQREKSNKLEEKKQLQEDIRRATFREHHQSKTAELLSRLDTERRNRSACLIAPPATQSSRWKLPVLLRDPSWAGSQAHRDSPQKEDNPRLQKTRDGHQKNKLLETKGQHQEEERAQIHQAEHWRVNNAFLDRLQGKSQPGGLEQSGGCCNMNSTDSWGL
Regarding B2, the binding entry in assay [1] and in assay [2] was “binds” each time.
